# According to the supplement of paper PMC8256030:
# “And” between values parts separate entries of the source, which are not always exact repeats. Equal values may be shown once. This is one part of the list. This data set is noisy: repeats of one test often differ as much as different tests do.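 HEK293T cells were given each compound shortly before transfection with a reporter in which red mCherry is followed by the SARS-CoV-2 frameshift element and then GFP in the −1 frame, so GFP appears only after frameshifting.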
# Test system: HEK293T
# Experiment: percent viability (nuclei count) relative to control; higher = more viable cells
# Conditions: 10 µM; 24 h
row,SMILES,percent viability
1,O=C(OOC(=O)c1ccccc1)c1ccccc1,368%
2,CC1=CC(=O)NS(=O)(=O)O1 [acesulfame],142%
3,Cc1cc2c(cc1CC(=O)c1sccc1S(=O)(=O)Nc1onc(C)c1Cl)OCO2 [Thelin],288%
4,C=C1/C(=C\C=C2/CCC[C@]3(C)[C@@H]([C@H](C)/C=C/[C@@H](O)C4CC4)CC[C@@H]23)C[C@@H](O)C[C@@H]1O [calcipotriol],183% and 248%
5,CCOc1ccc2nc3cc(N)ccc3c(N)c2c1,123%
6,CC(=O)Nc1ccc(OC(=O)c2ccccc2O)cc1 [acetaminosalol],328%
7,O=C(c1cc(Cc2n[nH]c(=O)c3ccccc23)ccc1F)N1CCN(C(=O)C2CC2)CC1 [Olaparib],243%
8,CC[C@H]1OC(=O)[C@H](C)[C@@H](O[C@H]2C[C@@](C)(OC)[C@@H](O)[C@H](C)O2)[C@H](C)[C@@H](O[C@@H]2O[C@H](C)C[C@H](N(C)C)[C@H]2O)[C@](C)(O)C[C@@H](C)C(=O)[C@H](C)[C@@H](O)[C@H]1C [berythromycin],159%
9,O=C1c2c(O)ccc(O)c2C(=O)c2c(NCCNCCO)ccc(NCCNCCO)c21 [mitoxantrone],27.7% and 28.6%
10,CO[C@H](C(=O)[C@@H](O)[C@@H](C)O)[C@@H]1Cc2cc3cc(O[C@H]4C[C@@H](O[C@H]5C[C@@H](O)[C@H](O)[C@@H](C)O5)[C@H](O)[C@@H](C)O4)c(C)c(O)c3c(O)c2C(=O)[C@H]1O[C@H]1C[C@@H](O[C@H]2C[C@@H](O[C@H]3C[C@](C)(O)[C@H](O)[C@@H](C)O3)[C@@H](O)[C@@H](C)O2)[C@H](O)[C@@H](C)O1 [Plicamycin],39.7%
11,C[C@H]1C[C@H]2[C@@H]3C[C@H](F)C4=CC(=O)C=C[C@]4(C)[C@@]3(F)[C@@H](O)C[C@]2(C)[C@@]1(O)C(=O)CO [diflorasone],169%
12,CC#CCC(C)[C@H](O)/C=C/[C@@H]1[C@H]2C/C(=C/CCCC(=O)O)C[C@H]2C[C@H]1O (some centres not stated) [iloprost],195%
13,O=c1[nH]c2cc(C(F)(F)F)c(N3CCOCC3)cc2n(CP(=O)(O)O)c1=O [fanapanel],193%
14,C[C@H]1COc2c(C3(N)CC3)c(F)cc3c(=O)c(C(=O)O)cn1c23 [Pazufloxacin],226%
15,Cc1cccc(Oc2cnc(=O)[nH]c2)c1 [tolimidone],233%
16,CC(C)(C)NCC(O)c1cc(Br)no1 (configuration not stated) [broxaterol],236%
17,Clc1ccc(COC(Cn2ccnc2)c2ccc(Cl)cc2Cl)cc1 (configuration not stated),182%
18,Cc1cnc(NC(=O)C2=C(O)c3ccccc3S(=O)(=O)N2C)s1 [Meloxicam],218%
19,[O-][n+]1cccc(CO)c1 [mepiroxol],286%
20,CCN[C@@H]1C[C@H](N)[C@@H](O[C@H]2OC(CN)=CC[C@H]2N)[C@H](O)[C@H]1O[C@H]1OC[C@](C)(O)[C@H](NC)[C@H]1O [netilmicin],108%
21,COc1cc(C(=O)NCc2ccc(OCCN(C)C)cc2)cc(OC)c1OC [trimethobenzamide],214%
22,CN(C)CCCN1c2ccccc2Sc2ccccc21 [promazine],146%
23,CCOC(=O)[C@H](CCc1ccccc1)N[C@@H](C)C(=O)N1CC2(C[C@H]1C(=O)O)SCCS2 [Spirapril],287%
24,CCOC(=O)N1CCC(=C2c3ccc(Cl)cc3CCc3cccnc32)CC1 [loratadine],290% and 110%
25,O=C(CCCN1CC=C(n2c(=O)[nH]c3ccccc32)CC1)c1ccc(F)cc1 [droperidol],136%
26,CCCCCCCCCCC[C@@H](C[C@@H]1OC(=O)[C@H]1CCCCCC)OC(=O)[C@H](CC(C)C)NC=O [orlistat],392%
27,C[C@H](Cc1ccc(O)c(O)c1)[C@@H](C)Cc1ccc(O)c(O)c1 [Masoprocol],23.9%

# An excerpt of these results, with bars between the fields.
row | SMILES | percent viability
1 | O=C(OOC(=O)c1ccccc1)c1ccccc1 | 368%
2 | CC1=CC(=O)NS(=O)(=O)O1 [acesulfame] | 142%
